PubChem BioAssay AID743121, NCATS, 2013
Shown is an unselected part of about 26,000 deposited reagents. Of all reagents, 167 (0.63%) are marked active. 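Calls are per gene from RSA p-values that are not deposited; an individual active-marked siRNA can sensitise only weakly.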 A number with no mark means an inactive call. Reagents against one gene are numbered here. Further read-outs or replicates are left out here. No sequences are given here.

Assay: 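Partners whose loss is lethal together with topoisomerase I blockade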 (primary screen)
Cell system: MDA-MB-231 cells, a human breast cancer line
Reagent: single siRNA against human genes, 20 nM siRNA (0.8 pmol per well)
Timing: 120 h (drug added 48 h after transfection, read 72 h later)
Conditions: camptothecin 20 nM (about EC30) for 72 h; vehicle 0.1% DMSO in parallel plates
Detection: 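Cell viability by ATP luminescence (CellTiter-Glo) as % of non-targeting siRNA wells, and the log2 ratio of viability without drug over viability with camptothecin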
Reading the numbers: log2 vehicle/camptothecin viability: higher = stronger sensitisation to camptothecin
Rule for the call: 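Each gene scored by redundant siRNA activity (RSA) over its individual siRNA ratios; a gene is called active at p < 0.001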

{"Target gene": "TAL1", "reagent no.": 1, "log2 vehicle/camptothecin viability": -0.0174}
{"Target gene": "TAL1", "reagent no.": 2, "log2 vehicle/camptothecin viability": -0.493}
{"Target gene": "TAL1", "reagent no.": 3, "log2 vehicle/camptothecin viability": -0.344}
{"Target gene": "TAL1", "reagent no.": 4, "log2 vehicle/camptothecin viability": -0.374}
{"Target gene": "SMYD2 (SET and MYND domain containing 2)", "reagent no.": 1, "log2 vehicle/camptothecin viability": -0.0929}
{"Target gene": "SMYD2 (SET and MYND domain containing 2)", "reagent no.": 2, "log2 vehicle/camptothecin viability": 0.134}
{"Target gene": "SMYD2 (SET and MYND domain containing 2)", "reagent no.": 3, "log2 vehicle/camptothecin viability": -0.248}
{"Target gene": "SMYD2 (SET and MYND domain containing 2)", "reagent no.": 4, "log2 vehicle/camptothecin viability": -0.447}
{"Target gene": "RPE65 (retinoid isomerohydrolase RPE65)", "reagent no.": 1, "log2 vehicle/camptothecin viability": -0.113}
{"Target gene": "RPE65 (retinoid isomerohydrolase RPE65)", "reagent no.": 2, "log2 vehicle/camptothecin viability": -0.169}
{"Target gene": "RPE65 (retinoid isomerohydrolase RPE65)", "reagent no.": 3, "log2 vehicle/camptothecin viability": -0.328}
{"Target gene": "RPE65 (retinoid isomerohydrolase RPE65)", "reagent no.": 4, "log2 vehicle/camptothecin viability": -0.00421}
{"Target gene": "SORT1 (sortilin 1)", "reagent no.": 1, "log2 vehicle/camptothecin viability": 0.193}
{"Target gene": "SORT1 (sortilin 1)", "reagent no.": 2, "log2 vehicle/camptothecin viability": -0.124}
{"Target gene": "SORT1 (sortilin 1)", "reagent no.": 3, "log2 vehicle/camptothecin viability": 0.0386}
{"Target gene": "SORT1 (sortilin 1)", "reagent no.": 4, "log2 vehicle/camptothecin viability": 0.492}
{"Target gene": "MAT1A (methionine adenosyltransferase 1A)", "reagent no.": 1, "log2 vehicle/camptothecin viability": -0.228}
{"Target gene": "MAT1A (methionine adenosyltransferase 1A)", "reagent no.": 2, "log2 vehicle/camptothecin viability": -0.121}
{"Target gene": "MAT1A (methionine adenosyltransferase 1A)", "reagent no.": 3, "log2 vehicle/camptothecin viability": 0.235}
{"Target gene": "MAT1A (methionine adenosyltransferase 1A)", "reagent no.": 4, "log2 vehicle/camptothecin viability": 0.0188}
{"Target gene": "CAMK1D (calcium/calmodulin dependent protein kinase ID)", "reagent no.": 1, "log2 vehicle/camptothecin viability": -0.469}
{"Target gene": "CAMK1D (calcium/calmodulin dependent protein kinase ID)", "reagent no.": 2, "log2 vehicle/camptothecin viability": 0.0561}
{"Target gene": "CAMK1D (calcium/calmodulin dependent protein kinase ID)", "reagent no.": 3, "log2 vehicle/camptothecin viability": 0.159}
{"Target gene": "CAMK1D (calcium/calmodulin dependent protein kinase ID)", "reagent no.": 4, "log2 vehicle/camptothecin viability": 0.241}
{"Target gene": "ADAM20 (ADAM metallopeptidase domain 20)", "reagent no.": 1, "log2 vehicle/camptothecin viability": -0.177}
{"Target gene": "ADAM20 (ADAM metallopeptidase domain 20)", "reagent no.": 2, "log2 vehicle/camptothecin viability": 0.127}
{"Target gene": "ADAM20 (ADAM metallopeptidase domain 20)", "reagent no.": 3, "log2 vehicle/camptothecin viability": 0.421}
{"Target gene": "ADAM20 (ADAM metallopeptidase domain 20)", "reagent no.": 4, "log2 vehicle/camptothecin viability": -0.254}
{"Target gene": "TNFRSF11B (TNF receptor superfamily member 11b)", "reagent no.": 1, "log2 vehicle/camptothecin viability": 0.0797}
{"Target gene": "TNFRSF11B (TNF receptor superfamily member 11b)", "reagent no.": 2, "log2 vehicle/camptothecin viability": -0.245}
{"Target gene": "TNFRSF11B (TNF receptor superfamily member 11b)", "reagent no.": 3, "log2 vehicle/camptothecin viability": -0.0178}
{"Target gene": "TNFRSF11B (TNF receptor superfamily member 11b)", "reagent no.": 4, "log2 vehicle/camptothecin viability": -0.0562}
{"Target gene": "RASGRP4 (RAS guanyl releasing protein 4)", "reagent no.": 1, "log2 vehicle/camptothecin viability": 0.0362}
{"Target gene": "RASGRP4 (RAS guanyl releasing protein 4)", "reagent no.": 2, "log2 vehicle/camptothecin viability": 0.14}
{"Target gene": "RASGRP4 (RAS guanyl releasing protein 4)", "reagent no.": 3, "log2 vehicle/camptothecin viability": 0.0119}
{"Target gene": "RASGRP4 (RAS guanyl releasing protein 4)", "reagent no.": 4, "log2 vehicle/camptothecin viability": -0.409}
{"Target gene": "CDKN1B (cyclin dependent kinase inhibitor 1B)", "reagent no.": 1, "log2 vehicle/camptothecin viability": -0.276}
{"Target gene": "CDKN1B (cyclin dependent kinase inhibitor 1B)", "reagent no.": 2, "log2 vehicle/camptothecin viability": -0.493}
{"Target gene": "CDKN1B (cyclin dependent kinase inhibitor 1B)", "reagent no.": 3, "log2 vehicle/camptothecin viability": -0.248}
{"Target gene": "CDKN1B (cyclin dependent kinase inhibitor 1B)", "reagent no.": 4, "log2 vehicle/camptothecin viability": 0.381}
{"Target gene": "IL27 (interleukin 27)", "reagent no.": 1, "log2 vehicle/camptothecin viability": -0.045}
{"Target gene": "IL27 (interleukin 27)", "reagent no.": 2, "log2 vehicle/camptothecin viability": 0.12}
{"Target gene": "IL27 (interleukin 27)", "reagent no.": 3, "log2 vehicle/camptothecin viability": -0.683}
{"Target gene": "IL27 (interleukin 27)", "reagent no.": 4, "log2 vehicle/camptothecin viability": -0.394}
{"Target gene": "PTGR3 (prostaglandin reductase 3)", "reagent no.": 1, "log2 vehicle/camptothecin viability": 0.0115}
{"Target gene": "PTGR3 (prostaglandin reductase 3)", "reagent no.": 2, "log2 vehicle/camptothecin viability": -0.377}
{"Target gene": "PTGR3 (prostaglandin reductase 3)", "reagent no.": 3, "log2 vehicle/camptothecin viability": 0.265}
{"Target gene": "PTGR3 (prostaglandin reductase 3)", "reagent no.": 4, "log2 vehicle/camptothecin viability": -0.00502}

Already shown: an excerpt of the list.
{"Target gene": "MAT1A (methionine adenosyltransferase 1A)", "reagent no.": 4, "log2 vehicle/camptothecin viability": 0.0188}
{"Target gene": "CAMK1D (calcium/calmodulin dependent protein kinase ID)", "reagent no.": 1, "log2 vehicle/camptothecin viability": -0.469}
{"Target gene": "CAMK1D (calcium/calmodulin dependent protein kinase ID)", "reagent no.": 2, "log2 vehicle/camptothecin viability": 0.0561}
{"Target gene": "CAMK1D (calcium/calmodulin dependent protein kinase ID)", "reagent no.": 3, "log2 vehicle/camptothecin viability": 0.159}
{"Target gene": "CAMK1D (calcium/calmodulin dependent protein kinase ID)", "reagent no.": 4, "log2 vehicle/camptothecin viability": 0.241}
